± gives the standard deviation of the averaged measurements. Some of the results follow. Values are raw readings; no control value is given beside them.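 The test system is a mixed culture of neurons, microglia and astrocytes in which bacterial LPS triggers microglia-driven neuron loss, modelling inflammatory neurodegeneration. Each compound was compared with vehicle (DMSO) wells on the same plates, and the SYK inhibitor BAY61-3606 served as the reference neuroprotective control.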
Each molecule was assayed on rat primary cerebellar neuron-glia coculture (assay: necrotic cell count (DRAQ7+) per image field (cells per field); higher = more necrosis). Conditions: LPS 0 ng/mL; 1 µM; treatment time 3 days.
Procedure: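 Primary rat (P3-7) cerebellar neuron-glia cocultures in 384-well plates were treated at DIV7 with 1 uM compound, then with or without 100 ng/mL LPS 30 min later, for 3 days. At DIV10 live cells were stained with Hoechst 33342, NeuO (live neurons), IB4-AF594 (microglia) and DRAQ7 (necrotic cells) and imaged at 10x (4 fields per well, IN Cell Analyzer 6000). Cells were classified with Cellpose/CellProfiler plus a Random Trees classifier. Values are per-well mean counts per image field (raw, not min-max normalised) and the median microglial FormFactor per image. Three technical replicates per repeat across 4 biological repeats; DMSO and BAY61-3606 serve as controls.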
O=C(O)CS/C=C/c1ccccc1 showed a necrotic cell count of 72.8 ± 19. With Cc1cccc(Nc2nc(N[C@@H]3CCCC[C@@H]3N)ncc2C(N)=O)c1 the necrotic cell count was 214 ± 63. Molecule FC(F)(F)c1c(N2CCC(c3ccccc3)CC2)ccn2c(CC3CC3)nnc12 has a necrotic cell count of 85.7 ± 30. Nc1ccccc1NC(=O)c1ccc(CNC(=O)OCc2cccnc2)cc1 showed a necrotic cell count of 468 ± 160. With Cc1ccc(C2=NCCN2)cc1 the necrotic cell count was 74.5 ± 42. In the case of Cc1ncc(Cl)cc1NCc1ccc(C(=O)N[C@@H](CC2CCCC2)C(=O)NC2CC2)s1, the necrotic cell count is reported as 85.3 ± 26. In the case of O=C(O)c1ccc(NC(=O)[C@H](CC2CCCC2)n2cnc(C(F)(F)F)c2)nc1, the necrotic cell count is reported as 87.6 ± 36. For O=C(Nc1nnn[nH]1)NC1CCCCC1, the necrotic cell count was 96.7 ± 43. N#Cc1cccc(NC(=O)c2ccccn2)c1 was tested, and the necrotic cell count was 87.6 ± 33. O=C(c1ccc(-c2ccccc2)cc1)N1CCN(c2ccccn2)CC1 was tested, and the necrotic cell count was 85.6 ± 27. CC(C)(F)C[C@H](N[C@@H](c1ccc(-c2ccc(S(C)(=O)=O)cc2)cc1)C(F)(F)F)C(=O)NC1(C#N)CC1 showed a necrotic cell count of 84.1 ± 27. Work on COc1ccc2c(c1)[C@]1(C[C@H]1c1ccc3c(/C=C/c4ccc(CN5C[C@@H](C)O[C@@H](C)C5)cc4)n[nH]c3c1)C(=O)N2 yielded a necrotic cell count of 83.5 ± 37. CCN(CC)c1ccc(NC(=O)c2oc3ccccc3c2C)cc1 was tested, and the necrotic cell count was 70.6 ± 30. Work on CNCCC(Oc1ccc(C(F)(F)F)cc1)c1ccccc1 (stereo not given) yielded a necrotic cell count of 152 ± 22. CCOC(=O)C1=C(C)NC(=O)NC1c1ccsc1 (stereo not given) gave a necrotic cell count of 103 ± 58. Molecule COc1cc2nc(N(C)CCCNC(=O)C3CCCO3)nc(N)c2cc1OC (stereo not given) has a necrotic cell count of 95.2 ± 30. For CCCc1cc(C)[nH]c(=O)c1CNC(=O)c1cc(-c2ccnc(N3CCN(C)CC3)c2)cc2c1cnn2C(C)C, the necrotic cell count was 63.8 ± 27. With CCN1CCN(c2ccc(Nc3cc(N(C)C(=O)Nc4c(Cl)c(OC)cc(OC)c4Cl)ncn3)cc2)CC1 the necrotic cell count was 83 ± 30. COc1ccc(C(=O)C(=O)c2ccc(OC)cc2)cc1 was tested, and the necrotic cell count was 84.1 ± 23. CN1CCN(c2ccc(-c3cccc(CN4CCOCC4)c3)cc2NC(=O)c2c[nH]c(=O)cc2C(F)(F)F)CC1 gave a necrotic cell count of 88.6 ± 31.

Same assay, conditions: LPS 100 ng/mL; 1 µM; treatment time 3 days
With O=C(O)CS/C=C/c1ccccc1 the necrotic cell count was 974 ± 360. Cc1cccc(Nc2nc(N[C@@H]3CCCC[C@@H]3N)ncc2C(N)=O)c1 gave a necrotic cell count of 245 ± 170. For FC(F)(F)c1c(N2CCC(c3ccccc3)CC2)ccn2c(CC3CC3)nnc12, the necrotic cell count was 1060 ± 290. Nc1ccccc1NC(=O)c1ccc(CNC(=O)OCc2cccnc2)cc1 was tested, and the necrotic cell count was 1800 ± 450. Work on Cc1ccc(C2=NCCN2)cc1 yielded a necrotic cell count of 995 ± 500. Cc1ncc(Cl)cc1NCc1ccc(C(=O)N[C@@H](CC2CCCC2)C(=O)NC2CC2)s1 was tested, and the necrotic cell count was 909 ± 350. In the case of O=C(O)c1ccc(NC(=O)[C@H](CC2CCCC2)n2cnc(C(F)(F)F)c2)nc1, the necrotic cell count is reported as 1010 ± 400. In the case of O=C(Nc1nnn[nH]1)NC1CCCCC1, the necrotic cell count is reported as 988 ± 410. N#Cc1cccc(NC(=O)c2ccccn2)c1 showed a necrotic cell count of 1100 ± 310. Molecule O=C(c1ccc(-c2ccccc2)cc1)N1CCN(c2ccccn2)CC1 has a necrotic cell count of 948 ± 360. For CC(C)(F)C[C@H](N[C@@H](c1ccc(-c2ccc(S(C)(=O)=O)cc2)cc1)C(F)(F)F)C(=O)NC1(C#N)CC1, the necrotic cell count was 880 ± 290. Molecule COc1ccc2c(c1)[C@]1(C[C@H]1c1ccc3c(/C=C/c4ccc(CN5C[C@@H](C)O[C@@H](C)C5)cc4)n[nH]c3c1)C(=O)N2 has a necrotic cell count of 722 ± 320. CCN(CC)c1ccc(NC(=O)c2oc3ccccc3c2C)cc1 gave a necrotic cell count of 976 ± 440. Work on CNCCC(Oc1ccc(C(F)(F)F)cc1)c1ccccc1 (stereo not given) yielded a necrotic cell count of 135 ± 53. Work on CCOC(=O)C1=C(C)NC(=O)NC1c1ccsc1 (stereo not given) yielded a necrotic cell count of 895 ± 440. COc1cc2nc(N(C)CCCNC(=O)C3CCCO3)nc(N)c2cc1OC (stereo not given) gave a necrotic cell count of 443 ± 190. CCCc1cc(C)[nH]c(=O)c1CNC(=O)c1cc(-c2ccnc(N3CCN(C)CC3)c2)cc2c1cnn2C(C)C was tested, and the necrotic cell count was 671 ± 380. CCN1CCN(c2ccc(Nc3cc(N(C)C(=O)Nc4c(Cl)c(OC)cc(OC)c4Cl)ncn3)cc2)CC1 showed a necrotic cell count of 793 ± 270. Work on COc1ccc(C(=O)C(=O)c2ccc(OC)cc2)cc1 yielded a necrotic cell count of 982 ± 330. Molecule CN1CCN(c2ccc(-c3cccc(CN4CCOCC4)c3)cc2NC(=O)c2c[nH]c(=O)cc2C(F)(F)F)CC1 has a necrotic cell count of 791 ± 420.

Reference: the supplement of paper PMC10973195
